{"source": "PubChem BioAssay AID1259283, Sanger Institute – 2017", "test": "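Kinome-wide siRNA search for kinases acting with BYL719, cetuximab or trametinib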 (primary screen)", "cell system": "HT115 colorectal cancer cells", "reagents": "siRNA pool against human genes", "treatment": "anchor drug given one day after siRNA: BYL719 at 1 µM, cetuximab at 5 µg/ml, trametinib at 10 nM, or DMSO vehicle alone", "detection": "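Per-drug synergy scores plus replicate-mean viability relative to non-targeting pool #2 wells, also expressed as a robust z-score based on control wells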", "scale": "robust z-score, knock-down alone: higher = more viable cells after knock-down", "hit rule": "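Essential gene: robust z-score less than -3 with no drug added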", "calls": "active = essential (z below -3, no drug); inactive = no change without drug", "note": "Shown is a random part of 794 reagents tested. Over the whole deposit, 14 (1.8%) are marked active. 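Calls reflect only viability loss without drug; drug synergy does not enter the call.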 A number with no mark means an inactive call. Not all columns of the deposit are shown. Not stated in the record: the amount of reagent, the time to read-out."}
{"gene knocked down":"UCK1","robust z-score, knock-down alone":0.789}
{"gene knocked down":"TESK2","robust z-score, knock-down alone":0.789}
{"gene knocked down":"PCK1","robust z-score, knock-down alone":0.277}
{"gene knocked down":"PTK2","robust z-score, knock-down alone":0.789}
{"gene knocked down":"CDK5","robust z-score, knock-down alone":-0.0632}
{"gene knocked down":"MAP3K9","robust z-score, knock-down alone":-2.11}
{"gene knocked down":"RUNX1","robust z-score, knock-down alone":0.712}
{"gene knocked down":"HK2","robust z-score, knock-down alone":-0.488}
{"gene knocked down":"AURKB","robust z-score, knock-down alone":-1.18}
{"gene knocked down":"TTBK2","robust z-score, knock-down alone":-0.539}
{"gene knocked down":"NEK11","robust z-score, knock-down alone":-2.76}
{"gene knocked down":"PIK3C2A","robust z-score, knock-down alone":"-3.49 (active)"}

An excerpt taken from the entries so far:
{"gene knocked down":"TTBK2","robust z-score, knock-down alone":-0.539}
{"gene knocked down":"NEK11","robust z-score, knock-down alone":-2.76}
{"gene knocked down":"PIK3C2A","robust z-score, knock-down alone":"-3.49 (active)"}

Additional results follow:
{"gene knocked down":"IRAK4","robust z-score, knock-down alone":0.789}
{"gene knocked down":"PCK2","robust z-score, knock-down alone":0.789}
{"gene knocked down":"EIF2AK4","robust z-score, knock-down alone":0.523}
{"gene knocked down":"FGFR4","robust z-score, knock-down alone":0.789}
{"gene knocked down":"FLT1","robust z-score, knock-down alone":0.789}
{"gene knocked down":"PRKAG1","robust z-score, knock-down alone":0.789}
{"gene knocked down":"MKNK1","robust z-score, knock-down alone":0.789}
{"gene knocked down":"TLK2","robust z-score, knock-down alone":0.789}
{"gene knocked down":"MYLK","robust z-score, knock-down alone":-0.0632}
{"gene knocked down":"ACSL6","robust z-score, knock-down alone":0.789}
{"gene knocked down":"ABL2","robust z-score, knock-down alone":0.789}
{"gene knocked down":"TSSK2","robust z-score, knock-down alone":-0.392}
{"gene knocked down":"PANK1","robust z-score, knock-down alone":0.789}
{"gene knocked down":"NEK8","robust z-score, knock-down alone":-0.621}
{"gene knocked down":"EPHB1","robust z-score, knock-down alone":0.214}
{"gene knocked down":"DGKH","robust z-score, knock-down alone":0.601}
{"gene knocked down":"PRKCZ","robust z-score, knock-down alone":-0.335}
{"gene knocked down":"CDK17","robust z-score, knock-down alone":0.691}
{"gene knocked down":"MARK4","robust z-score, knock-down alone":0.611}
{"gene knocked down":"PAPSS1","robust z-score, knock-down alone":-0.167}
{"gene knocked down":"DLG2","robust z-score, knock-down alone":0.416}
{"gene knocked down":"CKM","robust z-score, knock-down alone":0.789}
{"gene knocked down":"BCOR","robust z-score, knock-down alone":0.33}
{"gene knocked down":"STKLD1","robust z-score, knock-down alone":0.0842}
